Assay results reported in paper PMC7615710.
No constants are given. Whether binding was seen depends on the method and setting. Binding seen in cells or lysates may run through a third protein. Some binding calls cover weakened binding; strength is not graded here. For part of these data: Where a sequence is shown, tags or fusion partners need not be part of it.

The chains behind the UniProt entries cited, without tags or fusion partners. Residues count along the entry.
UniProt Q99IB8, residues 1977-2442: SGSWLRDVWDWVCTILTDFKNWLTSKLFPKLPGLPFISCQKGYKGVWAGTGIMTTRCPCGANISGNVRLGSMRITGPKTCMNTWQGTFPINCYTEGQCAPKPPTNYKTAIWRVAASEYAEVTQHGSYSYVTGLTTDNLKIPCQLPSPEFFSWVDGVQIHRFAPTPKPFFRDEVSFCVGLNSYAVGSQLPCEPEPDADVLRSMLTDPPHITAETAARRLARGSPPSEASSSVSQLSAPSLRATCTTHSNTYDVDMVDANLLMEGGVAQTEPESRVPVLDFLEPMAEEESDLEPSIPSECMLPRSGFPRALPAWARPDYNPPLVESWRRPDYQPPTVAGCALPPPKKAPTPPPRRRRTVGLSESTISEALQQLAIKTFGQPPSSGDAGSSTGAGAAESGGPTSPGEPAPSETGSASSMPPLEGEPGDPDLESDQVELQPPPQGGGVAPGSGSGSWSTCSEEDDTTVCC

Assays:
[1] = molecular target: T1, Halo-tagged ASPP1 CTD (887-1090) (UniProt Q96KQ4); experiment: pull-down; only the target purified
T1 sequence: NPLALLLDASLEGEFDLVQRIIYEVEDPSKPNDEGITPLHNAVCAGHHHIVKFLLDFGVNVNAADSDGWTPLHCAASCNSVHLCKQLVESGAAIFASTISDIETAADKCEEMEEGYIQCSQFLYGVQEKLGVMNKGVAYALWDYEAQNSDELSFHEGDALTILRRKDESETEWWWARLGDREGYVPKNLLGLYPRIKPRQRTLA

[2] = molecular target: T2, ASPP2 (apoptosis-stimulating protein of p53 2), endogenous (human (endogenous in Huh7.5 and Huh7)) (UniProt Q13625); experiment: co-IP
T2 sequence: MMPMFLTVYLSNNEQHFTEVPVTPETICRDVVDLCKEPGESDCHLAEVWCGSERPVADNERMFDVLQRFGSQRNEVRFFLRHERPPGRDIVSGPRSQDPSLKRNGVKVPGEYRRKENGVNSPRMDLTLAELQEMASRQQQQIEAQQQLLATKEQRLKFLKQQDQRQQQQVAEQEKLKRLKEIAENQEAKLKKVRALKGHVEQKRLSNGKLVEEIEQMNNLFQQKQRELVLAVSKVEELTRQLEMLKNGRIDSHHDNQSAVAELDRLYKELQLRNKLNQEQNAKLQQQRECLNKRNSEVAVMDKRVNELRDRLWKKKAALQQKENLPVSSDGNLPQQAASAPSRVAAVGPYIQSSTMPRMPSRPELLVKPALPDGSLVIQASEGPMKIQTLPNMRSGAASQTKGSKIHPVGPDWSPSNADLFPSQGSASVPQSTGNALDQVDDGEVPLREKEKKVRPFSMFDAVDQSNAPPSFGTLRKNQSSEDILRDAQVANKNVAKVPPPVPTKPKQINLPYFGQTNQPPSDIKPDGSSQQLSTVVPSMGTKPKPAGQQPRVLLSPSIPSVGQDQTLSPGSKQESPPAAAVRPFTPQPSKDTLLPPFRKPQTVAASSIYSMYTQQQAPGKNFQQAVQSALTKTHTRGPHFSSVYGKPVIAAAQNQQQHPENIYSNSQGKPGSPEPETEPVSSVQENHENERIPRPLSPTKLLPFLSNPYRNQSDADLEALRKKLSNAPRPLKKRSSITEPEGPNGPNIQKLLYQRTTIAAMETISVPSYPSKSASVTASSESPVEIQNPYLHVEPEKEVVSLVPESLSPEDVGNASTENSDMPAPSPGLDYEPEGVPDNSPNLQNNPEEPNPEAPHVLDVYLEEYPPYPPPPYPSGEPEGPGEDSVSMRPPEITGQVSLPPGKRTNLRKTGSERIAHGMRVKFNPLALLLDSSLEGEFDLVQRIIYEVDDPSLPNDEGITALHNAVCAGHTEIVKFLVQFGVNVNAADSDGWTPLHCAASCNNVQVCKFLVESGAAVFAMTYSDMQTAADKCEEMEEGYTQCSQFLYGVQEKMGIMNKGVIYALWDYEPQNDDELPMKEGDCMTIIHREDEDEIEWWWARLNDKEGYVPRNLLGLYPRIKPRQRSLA

| Substance | binding [1] | binding [2] |
| --- | --- | --- |
| Myc-tagged HCV [1a.1] NS5A (from UniProt P26664 1973-2420) | no binding |  |
| HCV NS5A expressed from the subgenomic replicon N17/JFH (from UniProt Q99IB8 1977-2442) |  | binds |
| Myc-tagged HCV [1b.Con1] NS5A (from UniProt Q9WMX2 1973-2419) | no binding |  |
